Source: PMC12731528 (Chemistry (Weinheim an Der Bergstrasse, Germany), 2025)
Strings that start with PEPTIDE1 are HELM notation: dots part the residues, brackets hold end groups and non-standard residues.

Experiment: general procedure: peptide synthesis; 2-chlorotrityl (2-ClTrt) resin; DIC, Oxyma Pure, DIPEA
Conditions: late stage modification step
[1] = 220 nm, pentatrifluoroacetic acid

| Substance | final purity (method not given) [1] [%] | final purity (method not given) (254 nm, TFA salt (56)) [%] | final purity (method not given) (280 nm, TFA salt (56)) [%] | step yield (TFA salt (56)) [%] | final HPLC purity [1] [%] | final HPLC purity (254 nm, TFA salt (56)) [%] | final HPLC purity (280 nm, TFA salt (56)) [%] |
| --- | --- | --- | --- | --- | --- | --- | --- |
| (S)-2-((S)-6-amino-2-((2S,3R)-2-((S)-2-((S)-2-aminopropanamido)-5-guanidinopentanamido)-3-hydroxybutanamido)hexanamido)-N1-((4S,7S,10S,13S,14R)-7-(3-guanidinopropyl)-14-hydroxy-4-(4-(isoindolin-2-yl)butyl)-10-methyl-3,6,9,12-tetraoxo-2,5,8,11-tetraazapentadecan-13-yl)pentanediamide | 97.6 | 98.1 | 97.3 | 70 |  |  |  |
| PEPTIDE1{A.R.T.K.Q.T.A.R.[Lys(isoindoline)].[PEG3-BRD28]}$$$$V2.0 |  |  |  | 51 | 97.3 | 97.1 | 96.2 |
| PEPTIDE1{A.R.T.K.Q.T.A.R.[Lys(isoindoline)].[NHMe]}$$$$V2.0 |  |  |  | 70 |  |  |  |
| PEPTIDE1{A.R.T.K.Q.T.A.R.[Lys(isoindoline)].[PEG4-BRD28]}$$$$V2.0 |  |  |  | 50 | 97.7 | 97.6 | 97.3 |
